In US20250388643A1, “GLUCAGON-LIKE PEPTIDE-2 COMPOSITIONS AND METHODS OF MAKING AND USING SAME” (Amunix Pharmaceuticals, Inc., priority 2011, published 2025):
These are yes or no findings as the source states them, for the method shown. Some entries that bind do so weakly or less than the wild type. Tags and fused reporters may be left off the sequences shown.

Target: T1, GLP-2 receptor (GLP2 G-protein coupled receptor) on transfected GLP2R cell line (Millipore, Cat #HTS164C) (human) (UniProt O95838)
T1 sequence (looked up): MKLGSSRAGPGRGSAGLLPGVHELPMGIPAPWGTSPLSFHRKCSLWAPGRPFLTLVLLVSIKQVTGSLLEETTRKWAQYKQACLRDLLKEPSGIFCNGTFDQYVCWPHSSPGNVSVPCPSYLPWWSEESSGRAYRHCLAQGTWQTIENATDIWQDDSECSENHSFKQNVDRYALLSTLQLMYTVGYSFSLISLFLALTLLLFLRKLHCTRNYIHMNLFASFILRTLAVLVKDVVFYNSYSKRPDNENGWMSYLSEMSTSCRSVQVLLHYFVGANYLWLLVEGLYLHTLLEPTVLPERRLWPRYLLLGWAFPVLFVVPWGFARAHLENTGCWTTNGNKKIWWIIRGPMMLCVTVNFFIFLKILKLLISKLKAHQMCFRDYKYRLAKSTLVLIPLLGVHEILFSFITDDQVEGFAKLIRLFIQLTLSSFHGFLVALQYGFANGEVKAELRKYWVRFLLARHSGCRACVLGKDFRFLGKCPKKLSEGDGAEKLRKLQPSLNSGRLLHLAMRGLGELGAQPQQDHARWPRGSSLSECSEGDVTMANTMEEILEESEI
Experiment: calcium flux assay on GLP2R-transfected cells (GPCR Profiler, Millipore), called a receptor binding assay by the filing

- binding: binds
B1: GLP2-2G-XTEN_AE864 fusion protein (ligand)
chain: HGDGSFSDEMNTILDNLAARDFINWLIQTKITDGGSPAGSPTSTEEGTSESATPESGPGTSTEPSEGSAPGSPAGSPTSTEEGTSTEPSEGSAPGTSTEPSEGSAPGTSESATPESGPGSEPATSGSETPGSEPATSGSETPGSPAGSPTSTEEGTSESATPESGPGTSTEPSEGSAPGTSTEPSEGSAPGSPAGSPTSTEEGTSTEPSEGSAPGTSTEPSEGSAPGTSESATPESGPGTSTEPSEGSAPGTSESATPESGPGSEPATSGSETPGTSTEPSEGSAPGTSTEPSEGSAPGTSESATPESGPGTSESATPESGPGSPAGSPTSTEEGTSESATPESGPGSEPATSGSETPGTSESATPESGPGTSTEPSEGSAPGTSTEPSEGSAPGTSTEPSEGSAPGTSTEPSEGSAPGTSTEPSEGSAPGTSTEPSEGSAPGSPAGSPTSTEEGTSTEPSEGSAPGTSESATPESGPGSEPATSGSETPGTSESATPESGPGSEPATSGSETPGTSESATPESGPGTSTEPSEGSAPGTSESATPESGPGSPAGSPTSTEEGSPAGSPTSTEEGSPAGSPTSTEEGTSESATPESGPGTSTEPSEGSAPGTSESATPESGPGSEPATSGSETPGTSESATPESGPGSEPATSGSETPGTSESATPESGPGTSTEPSEGSAPGSPAGSPTSTEEGTSESATPESGPGSEPATSGSETPGTSESATPESGPGSPAGSPTSTEEGSPAGSPTSTEEGTSTEPSEGSAPGTSESATPESGPGTSESATPESGPGTSESATPESGPGSEPATSGSETPGSEPATSGSETPGSPAGSPTSTEEGTSTEPSEGSAPGTSTEPSEGSAPGSEPATSGSETPGTSESATPESGPGTSTEPSEGSAPG
